# In PubChem BioAssay AID1794845 (National Center for Advancing Translational Sciences (NCATS), 2023):
# Chains of the proteins cited; added tags and fusions are not shown. Lines headed by an entry give the natural chain unless they say otherwise; changes in a name come on top.
# UniProt C7C422: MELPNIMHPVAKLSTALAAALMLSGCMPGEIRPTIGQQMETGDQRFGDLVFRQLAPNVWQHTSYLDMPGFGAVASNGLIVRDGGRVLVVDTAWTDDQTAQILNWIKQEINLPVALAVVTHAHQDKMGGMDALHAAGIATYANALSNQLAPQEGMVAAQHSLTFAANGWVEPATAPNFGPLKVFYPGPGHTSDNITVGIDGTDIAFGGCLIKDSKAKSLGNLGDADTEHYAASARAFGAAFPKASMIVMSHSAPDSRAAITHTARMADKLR
# Among all 6,900 compounds or so, fewer than 10 were called active. Calls come from the whole dose curve; as a rule, active = well fitted curve in the direction sought with a large enough effect; inconclusive = small, poorly fitted or top-dose-only effect, or another doubt; inactive = no such curve, though single readings can be large or run the other way. The list shows a part of the results.
# Molecular target: Metallo-beta-lactamase type 2 (Klebsiella pneumoniae) (UniProt C7C422)
# Assay: qHTS to identify inhibitors of the New Delhi Metallo-beta-lactamase (NDM): primary screen against the NCATS Gemini Collection; note: % of control where 0% means no effect
# Conditions: NDM-1 enzyme, meropenem hydrolysis, absorbance 300 nm; at 38.4 µM (top of the series) unless noted
# Outline: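 NDM-1 at 2 nM final in 50 mM HEPES pH 7.0, 1 uM ZnSO4, 0.01% Tween20, preincubated >30 min with compound. Meropenem 50 uM final added; absorbance at 300 nm after 30 min.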
row,Structure (SMILES),activity % (negative = inhibition)
1,Cc1cccc(-c2cccc(CN3CCC(N[S+](=O)([O-])c4c(C)noc4C)CC3)c2)c1,inactive: -0.993%
2,COC(=O)CC(NC(=O)Nc1cccn2nc(C)nc12)c1ccccc1 (stereo not given),inactive: 2.43%
3,CCC1(CO)CCCN(CCCOc2ccc(C(N)=O)cc2)C1 (stereo not given),inactive: -4.55%
4,NC(=O)CN1CCC(c2nc(-c3ccc4nc[nH]c4c3)no2)CC1,inactive: -1.29%
5,CCCCC1C(=O)N(C)CCN1c1nc2c(s1)c(C)nn2C (stereo not given),inactive: 1.29%
6,O=C(c1cnn2cccnc12)N(Cc1ccncc1)Cc1cccc(OCCc2ccc(F)cc2)c1,inactive: 24.3%
7,CCNc1ncnc2sc3c(c12)CCN(Cc1ccco1)C3,inactive: 12.7%
8,COCCNC(=O)[C@@H]1CCC[C@@H](NC(=O)c2c(-c3ccccc3)noc2C)CN(C)C(=O)C1,inactive: -15.5%
9,O=C([C@@H]1C[C@H](Oc2cccnc2)CN1C(=O)c1cc2ccccc2[nH]1)N1CCCC1,inactive: 18.5%
10,Cn1nc(N2CCC(NS(=O)(=O)c3ccc4c(c3)CCC4)CC2)ccc1=O,inactive: 29.6%
11,Cc1ccc(NC(=O)N2CCC(c3noc(COCC4CC4)n3)CC2)cc1F,inactive: 0.901%
12,CCn1c(CO)nnc1C1CC(NC(=O)c2oc3cc(OC)ccc3c2C)C1 (stereo not given),inactive: -11.9%
13,CC1CN(c2ccccc2C#N)C(=O)CN1C(=O)c1ccc2c(c1)OCCO2 (stereo not given),inactive: -0.521%
14,COC1CCCOC12CCN(C(=O)CCn1c(C)nc3ccccc31)CC2 (stereo not given),inactive: 2.42%
15,CNC(=O)[C@@H]1C[C@H](Oc2ccccc2)CN1S(=O)(=O)Cc1ccccc1F,inactive: -0.29%
16,Cc1cc(C)n(Cc2cccc(C(=O)N3Cc4ccccc4C(O)C3)c2)n1 (stereo not given),inactive: -2.66%
17,CCNC(=O)c1ccc2c(c1)OCCN(c1cccc(OC(F)(F)F)c1)C2,inactive: 20.1% [at 57.5 µM]
18,COc1ccc(C(=O)N2CC(N(C3CCOCC3)S(C)(=O)=O)C2)cn1,inactive: -5.21%
19,COC[C@@H]1OC[C@@]2(C)C3CC[C@@H](O)[C@@H](CC(=O)N4CCCCC4)[C@]3(C)CC[C@H]2O1 (stereo not given in full),inactive: -3.61% [at 57.5 µM]
20,O=C(NCc1cccc(C(F)(F)F)c1)c1ccc2nnc(-c3cc[nH]c3)n2c1,inactive: 18.4%
21,Cc1ccc(-c2ccccc2CN2CCN(C(=O)Nc3ccccc3)CC2)cc1Cl,inactive: 0.811%
22,O=C(NC1CCCC1)c1ccc(OC2CCN(CCCC(F)(F)F)CC2)c(Cl)c1,inactive: 5.27%

# In the list so far, these contain a Cl atom:
row,Structure (SMILES),activity % (negative = inhibition)
21,Cc1ccc(-c2ccccc2CN2CCN(C(=O)Nc3ccccc3)CC2)cc1Cl,inactive: 0.811%
22,O=C(NC1CCCC1)c1ccc(OC2CCN(CCCC(F)(F)F)CC2)c(Cl)c1,inactive: 5.27%

# More records

row,Structure (SMILES),activity % (negative = inhibition)
1,Cc1nn2c(c1-c1ccccc1C(C)C)N(C(=O)c1cnccn1)CCC2,inactive: 1.93% [at 57.5 µM]
2,COc1ccc(CO[C@H]2COCCN(c3nc4ccccc4s3)C2)cc1,inactive: -2.68% [at 57.5 µM]
3,O=C(c1cccnc1)N1CCC2(CC1)CC(N(C(=O)c1ccccc1)C1CC1)CCO2 (stereo not given),inactive: -8.5%
4,COc1ccc(C(=O)Nc2cnc3c(c2)CCC3)cc1,inactive: 9.21%
5,CC(C)C1=NOC2(CCN(C(=O)C3CCCC3)CC2)C1,inactive: -0.922% [at 57.5 µM]
6,CCC1(N2CCN(S(=O)(=O)c3cc(F)ccc3C)CC2)CCN(C(=O)NC)C1 (stereo not given),inactive: -2.47%
7,CN(CCO)C(=O)c1cn2cc(-c3cccs3)n(CC3CC3)c(=O)c2n1,inactive: -0.0523%
8,COCCNC(=O)c1nc(-c2ccsc2)c2ccccn12,inactive: 31.8% [at 57.5 µM]
9,CC(C)NC(=O)NC[C@H]1O[C@@H](CO)[C@@H](O)[C@H]1N(C)CCN(C)C,inactive: 15.7% [at 57.5 µM]
10,NC(=O)CN1C(=O)[C@@H]2CN(C(=O)c3cccs3)CCN2C1=O,inactive: 1.74% [at 57.5 µM]
11,O=S(=O)(c1ccc(F)cc1)N1CCC(c2noc(C3CC3)n2)C1 (stereo not given),inactive: 8.65%
12,Cc1cn2nnc(C(=O)NCc3ccc(C(C)C)cc3)c2c(=O)[nH]1,inactive: 1.22%
13,O=C(Cc1ccccn1)N1CCC2(CC1)CCN(Cc1cccs1)c1ccccc1O2,inactive: 0.84%
14,O=C(COc1ccccc1)Nc1ccc2c(c1)CN(Cc1ccccc1F)C(=O)CO2,inactive: -0.468%
15,CC(C)c1noc([C@@H]2C[C@H](NC(=O)c3ccc(F)cc3)CN2C)n1,inactive: 12.2% [at 57.5 µM]
16,CCC1(O)CCC12CCN(C(=O)Cc1ccccc1)CC2 (stereo not given),inactive: 0.153%
17,COc1cccc(CN2Cc3cc(NC(=O)c4ccc(F)cc4F)ccc3OC(C)C2=O)c1 (stereo not given),inactive: 27.3%
18,O=S1(=O)NCC2(CCN(Cc3ccc(Cl)s3)CC2)Oc2ncccc21,inactive: 5.08%
19,Cc1noc([C@@H]2CN(C(=O)c3cc(C4CC4)[nH]n3)C[C@H]2C(N)=O)n1,inactive: -2.48%
20,O=C1COc2ccc(-c3ccsc3)nc2CN1Cc1ccccc1,inactive: 5.7% [at 57.5 µM]
21,Cc1cnc(C(=O)N2CCC(c3nnc(CN4CCCC4)n3C3CC3)CC2)cn1,inactive: 4.85%
22,Cc1nc(C)c(CC(=O)N2CCCC(C)(Cc3ccc4c(c3)OCO4)C2)s1 (stereo not given),inactive: 25.3%

row,Structure (SMILES),activity % (negative = inhibition)
1,CCCn1ccnc1CN1CCCC12CCN(c1ccc(C(F)(F)F)cn1)CC2,inactive: -1.68%
2,O=C(Nc1cnc(-c2ccc(Cl)cc2)nc1)c1cccs1,inactive: 0.821%
3,CCOc1ccccc1C(=O)NC1CC(=O)N(CCc2ccc(F)cc2)C1 (stereo not given),inactive: 4.83%
4,CCN(CC)Cc1nnc2cc(-c3nc(-c4ccccc4)no3)ccn12,inactive: 5.04%
5,Cc1ccc(-c2cn(CC3CCCN(c4cc(C)nc(N)n4)C3)nn2)cc1 (stereo not given),inactive: 10.7%
6,O=C(Cn1cncn1)N1CCc2onc(C(c3ccccc3)c3ccccc3)c2C1,inactive: 0.351%
7,C1=C(c2nc(-c3ccncc3)cc3c2ccn3Cc2cccnc2)CCOC1,inactive: 17.9% [at 57.5 µM]
8,CCNc1ncc(CN2CCN(c3ccncc3)CC2)cn1,inactive: 14.7%
9,O=C(c1ccc(OC(F)F)cc1)N1C[C@H](CO)C[C@H](CN2CCCC2)C1,inactive: 2.73%
10,O=C1NC2(CCN(Cc3ccsc3)C2)Oc2ccccc21 (stereo not given),inactive: 3.21% [at 57.5 µM]
11,Cc1nc(-c2ccc(OC3CCN(C(=O)NC4CCCCC4)C3)cc2)no1 (stereo not given),inactive: 0.0723%
12,CC(C)N1CCN(C(=O)C23CCCC=C2N(c2ccccc2)C(=O)CC3)CC1 (stereo not given),inactive: 2.5%
13,Cc1nccnc1CN1CCC2(CC1)CCN(Cc1ncc[nH]1)CC2CO (stereo not given),inactive: -5.26%
14,C[S+](=O)([O-])N1CC2(Cc3ccccc31)CN(C(=O)c1ccc(F)cc1)C2,inactive: 0.0373%
15,O=C(c1ccccc1)N1CCC(c2nnc3n2C(C(=O)N2CCN(c4ncccn4)CC2)CC3)CC1 (stereo not given),inactive: -0.117%
16,O=C(N1CCC(Cc2nc(C3CC3)n[nH]2)CC1)C1(c2ccccc2)CC1,inactive: -9.4%
17,CC(=O)Nc1ccc(NC(=O)C2c3ccccc3C(=O)N(C3CCCC3)C23CCCC3)cc1 (stereo not given),inactive: -2.98%
18,CCN1C(=O)C2(CCN(S(=O)(=O)c3cc(C)ccc3C)CC2)c2ccccc21,inactive: 8.14%
19,CN(C)c1cccc(-c2cnc(NC(=O)c3ccncc3)c3c2CCO3)c1,inactive: 16% [at 57.5 µM]
20,CN(C)[C@@H]1CN(C(=O)CCc2ccccc2)CC[C@]1(O)c1ccccc1,inactive: 20%
21,O=C(CC1CCCCC1)N1CC(n2cc(COCC3CC3)nn2)C1,inactive: -1.5%
22,O=C(c1cccs1)N1Cc2[nH]cnc2C[C@H]1c1nc(-c2ccc3ccccc3c2)no1,inactive: 3.34% [at 57.5 µM]

row,Structure (SMILES),activity % (negative = inhibition)
1,COC(=O)c1ccc(COCC2=CC(C)(C)Oc3ccc(OC)cc32)cc1,inactive: 1.26%
2,CN1C(=O)C(c2ccccc2)CC12CCN(C(=O)c1ccc(F)cc1)CC2 (stereo not given),inactive: -3.55%
3,CN1CCCN(C(=O)c2ccccc2F)c2ccccc21,inactive: 0.66%
4,COCCN1CC2(CCCN(C(=O)CNC(N)=O)C2)CCC1=O (stereo not given),inactive: -0.876%
5,O=C(c1ccccn1)N1CCC(N2CCCC2=O)CC1,inactive: 7.98% [at 57.5 µM]
6,CC(C)c1ccc(N2C[C@]34C=C[C@H](O3)C(C(=O)N3CCSCC3)C4C2=O)cc1 (stereo not given in full),inactive: 0.842%
7,C=CCN1CC2(CCC1=O)CCN(C(=O)C1CC=CCC1)CC2 (stereo not given),inactive: -3.76%
8,O=C(CCc1nnn2c1CN(C(=O)c1cccc3[nH]ccc13)CC2)N1CCCC1,inactive: 26%
9,Nc1nc(CCC(=O)N[C@@H]2COCC[C@H]2Oc2ccc(CO)cc2)cs1,inactive: -3.81%
10,COCCC(=O)N1CCCN(C(=O)C2CC2)c2ccccc21,inactive: -1.91%
11,CC(C)CCO[C@H]1COCCN(C2CCN(C)CC2)C1,inactive: 2.73% [at 77.1 µM]
12,CC(C)NC(=O)N1CCOc2ccc(CCC(=O)NCCc3cccnc3)cc2C1,inactive: -0.159%
13,COc1ccc(C(=O)N2CC[C@@](O)(C3CCOCC3)[C@H](C)C2)o1,inactive: 5.72%
14,c1ccc(-c2nc(-c3ccc(OC4CNC4)cc3)no2)cc1,inactive: 0.0588%
15,O=C1NC2(CCCN(Cc3ccccc3C(F)(F)F)C2)COc2ccccc21 (stereo not given),inactive: 12.8%
16,COc1cccc(-c2cc(C(=O)N3CCC(Cn4cccn4)CC3)[nH]n2)c1,inactive: 13.4%
17,COc1ccc(-c2ccc(C(=O)NCc3cccc(Cl)c3)cc2)nn1,inactive: 1.87%
18,CCNC(=O)[C@@H]1C[C@H](NC(=O)CCc2ccccc2)CN1Cc1cnc[nH]1,inactive: 0.72%
19,CC[C@@]1(O)CCN(C(=O)c2cccc(CCC(C)(C)O)c2)C[C@H]1O,inactive: -0.696%

# Exported with tabs: entries from further up
row	Structure (SMILES)	activity % (negative = inhibition)
14	c1ccc(-c2nc(-c3ccc(OC4CNC4)cc3)no2)cc1	inactive: 0.0588%
15	O=C1NC2(CCCN(Cc3ccccc3C(F)(F)F)C2)COc2ccccc21 (stereo not given)	inactive: 12.8%
